Data published in publication PMC5320654.
These are yes or no findings as the source states them, for the method shown. Binding seen in cells or lysates may run through a third protein. Sequences can lack the tags named with a protein.

Key:
Experiment in all cases: co-IP; FLAG-WDR13 or its FLAG-tagged deletion constructs over-expressed in HEK293, immunocomplex purified with anti-FLAG agarose beads, blots for the partner proteins of the cells (endogenous in Fig. 6a)
[1] = molecular target: T1, FLAG-tagged WDR13 deletion construct FL-293 (UniProt Q91V09)
T1 sequence: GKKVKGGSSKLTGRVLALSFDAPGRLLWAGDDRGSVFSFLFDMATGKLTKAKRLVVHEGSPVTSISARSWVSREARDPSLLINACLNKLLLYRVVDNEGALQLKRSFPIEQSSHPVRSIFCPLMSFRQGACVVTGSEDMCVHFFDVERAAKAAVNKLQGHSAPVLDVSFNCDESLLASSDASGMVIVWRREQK

[2] = molecular target: T2, FLAG-tagged WDR13 deletion construct FL-393 (UniProt Q91V09)
T2 sequence: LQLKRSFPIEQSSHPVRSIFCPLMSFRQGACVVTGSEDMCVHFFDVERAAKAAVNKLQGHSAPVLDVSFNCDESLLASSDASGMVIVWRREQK

[3] = molecular target: T3, FLAG-tagged WDR13 deletion construct FL-93 (UniProt Q91V09)
T3 sequence: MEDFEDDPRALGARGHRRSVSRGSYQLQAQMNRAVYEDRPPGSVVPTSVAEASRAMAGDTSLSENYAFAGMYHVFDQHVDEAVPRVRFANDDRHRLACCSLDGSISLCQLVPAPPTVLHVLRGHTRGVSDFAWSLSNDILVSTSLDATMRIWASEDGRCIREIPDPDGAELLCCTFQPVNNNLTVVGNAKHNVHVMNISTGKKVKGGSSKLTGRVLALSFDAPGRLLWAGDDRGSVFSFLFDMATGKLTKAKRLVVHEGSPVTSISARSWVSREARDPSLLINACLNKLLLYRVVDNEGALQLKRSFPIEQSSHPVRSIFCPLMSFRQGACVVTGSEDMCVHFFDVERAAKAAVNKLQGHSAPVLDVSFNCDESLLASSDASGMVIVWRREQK

[4] = molecular target: T4, FLAG-tagged WDR13 deletion construct FL-193 (UniProt Q91V09)
T4 sequence: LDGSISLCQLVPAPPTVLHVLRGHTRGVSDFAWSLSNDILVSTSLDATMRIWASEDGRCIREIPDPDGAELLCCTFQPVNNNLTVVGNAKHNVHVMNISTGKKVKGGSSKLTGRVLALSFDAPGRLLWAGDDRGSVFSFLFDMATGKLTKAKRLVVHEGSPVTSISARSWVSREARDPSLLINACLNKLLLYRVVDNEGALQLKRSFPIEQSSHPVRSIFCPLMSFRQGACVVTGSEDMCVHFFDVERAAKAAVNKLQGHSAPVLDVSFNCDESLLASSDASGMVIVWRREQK

Measured: binding

NFκB
no binding: all assays above
